Experimental data taken from paper PMC8541381.
No constants are given. Whether binding was seen depends on the method and setting. Binding seen in cells or lysates may run through a third protein. Some entries that bind do so weakly or less than the wild type.

Biological target: Arabidopsis basic leucine zipper (bZIP) transcription factor bZIP63 (Arabidopsis) (UniProt B9DGI8)
Assay: split reporter; BiFC (split YFP) in onion epidermal cells, particle bombardment, 18 h at 23 °C, fluorescence microscopy

B1: Arabidopsis basic leucine zipper (bZIP) transcription factor bZIP63 (protein, UniProt B9DGI8 1-314)
chain: MEKVFSDEEISGNHHWSVNGMTSLNRSASEWAFNRFIQESSAAADDGESTTACGVSVSSPPNVPVDSEEYRAFLKSKLNLACAAVAMKRGTFIKPQDTSGRSDNGGANESEQASLASSKATPMMSSAITSGSELSGDEEEADGETNMNPTNVKRVKRMLSNRESARRSRRRKQAHLSELETQVSQLRVENSKLMKGLTDVTQTFNDASVENRVLKANIETLRAKVKMAEETVKRLTGFNPMFHNMPQIVSTVSLPSETSNSPDTTSSQVTTPEIISSGNKGKALIGCKMNRTASMRRVESLEHLQKRIRSVGDQ
binding: binds
